# Source: PubChem BioAssay AID504648 (National Center for Advancing Translational Sciences (NCATS), 2011)
# In all, about 390,000 compounds went through this assay and about 610 (0.16%) were called active. The inconclusive results got no clear call from the source; some entries with a clear call stand among them for comparison. The call rests on the fitted dose curve; in most records, active means well fitted inhibition curve with a large enough effect; inconclusive means small, poorly fitted or top-dose-only effect, or effect the other way, or another doubt; inactive means no such curve, though single readings can be large or run the other way. Potencies of inconclusive entries are doubtful fits and often do not repeat.
# Assay: Nrf2 qHTS screen for inhibitors: counterscreen for cytotoxicity
# Details: A549 ARE-Fluc cells, CellTiter-Fluor viability, 18-24 h; series mostly up to 46 µM
# Summary of the method: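 A549 ARE_Fluc cells in 5% FBS OPTI-MEM were exposed to compounds in concentration-response for 18-24 h at 37 deg C. Viability was read by CellTiter-Fluor fluorescence (Ex 405/Em 525) after 30 min, before the luciferase read.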
# Potency means the concentration at half of the fitted maximal effect.
row,Structure (SMILES),Potency
1,CC1CCN(CCCOc2ccc(OCc3ccccc3)cc2)CC1,"inconclusive: 18.4 µM [falling, partial curve, poor fit]"
2,O=C(CC1C(=O)NCCN1C/C=C/c1ccccc1)NCCc1cccnc1 (stereo not drawn),"inconclusive: 29.1 µM [falling, single point]"
3,COc1ccccc1NC(=O)CSc1nnnn1C1CCCC1,"inconclusive: 2.31 µM [activator, full curve, poor fit]"
4,Cc1nc2ccc(S(=O)(=O)N(CC(=O)Nc3cccc(Cl)c3)Cc3ccccc3)cc2s1,inactive
5,CC(C)n1c(=NC(=O)c2ccco2)c(C#N)cc2c(=O)n3ccccc3cc21,"inconclusive: 18.4 µM [activator, single point]"
6,CCN(C[C@H]1N[C@@](CC)(C(=O)OC)[C@H]2C(=O)N(Cc3ccccc3)C(=O)[C@@H]12)C(=O)c1ccc(C(C)(C)C)cc1,"inconclusive: 13 µM [falling, partial curve, poor fit]"
7,O=C(NCCc1csc(-c2ccc(F)cc2)n1)C(=O)Nc1ccc(Cl)cc1,inactive
8,N#Cc1nc(-c2ccco2)oc1NCc1ccco1,inactive
9,Cc1ccc(Nc2nc(-c3ccc(S(=O)(=O)N4CCCC4)cc3)cs2)cc1C,"inconclusive: 11.6 µM [falling, partial curve, poor fit]"
10,COc1ccc(OC)c(-c2cc(C(=O)Nc3cc(C)on3)no2)c1,inactive
11,O=C(NC(NNc1ccc([N+](=O)[O-])cc1)(C(F)(F)F)C(F)(F)F)c1ccc(Cl)cc1,"inconclusive: 20.6 µM [falling, single point]"
12,Cc1cc(C)n(-c2nc(C(F)(F)F)nc3ccccc23)n1,"inconclusive: 0.058 µM [activator, full curve, poor fit]"
13,Cc1ccc(C(=O)COC(=O)CCNS(=O)(=O)c2ccccc2F)cc1,inactive
14,Cc1sc2ncn(CC(=O)Nc3ccc(C(F)(F)F)cc3)c(=O)c2c1S(=O)(=O)N1CCN(C)CC1,"inconclusive: 20.6 µM [falling, partial curve, poor fit]"
15,O=C(NNc1nc2cc3c(cc2s1)OCO3)c1ccc(F)cc1,"inconclusive: 32.6 µM [falling, partial curve, poor fit]"
16,CC[n+]1c(/C=C2/C=C(C)CC(C)(C)C2)sc2ccc(OC)cc21,"inconclusive: 25.9 µM [falling, single point]"
17,OC[C@@H]1[C@@H](c2ccccc2)C(c2cccc(Cl)c2)=NN1c1ccccc1,"inconclusive: 23.1 µM [activator, partial curve]"
18,S=C(Nc1ccccc1)c1ccccn1,inactive
19,COC(=O)C1=CN(Cc2ccc(OC)c(OC)c2)C=C(C(=O)OC)C1c1ccccc1F,"inconclusive: 6.51 µM [falling, single point]"
20,CCn1nnnc1SCC(=O)Nc1ccc2c(c1)OCCO2,inactive
21,CCC1C(=O)n2nc(-c3ccccc3)cc2N=C1C (stereo not drawn),inactive
22,Cc1ccccc1OCC(=O)OCC(=O)Nc1cc(S(=O)(=O)N2CCCCC2)ccc1Cl,inactive

# Molecules shown so far that have an aryl thioether with sulfur outside any ring, in the order listed:
row,Structure (SMILES),Potency
3,COc1ccccc1NC(=O)CSc1nnnn1C1CCCC1,"inconclusive: 2.31 µM [activator, full curve, poor fit]"
20,CCn1nnnc1SCC(=O)Nc1ccc2c(c1)OCCO2,inactive

# Following part:

row,Structure (SMILES),Potency
1,N#Cc1c(NC(=O)CSc2ncc(-c3ccccc3)n2CC2CCCO2)sc2c1CCCC2 (stereo not drawn),"inconclusive: 29.1 µM [falling, single point]"
2,COc1ccc(OC)c(NC(=O)CCN2CCC(C)CC2)c1,"inconclusive: 29.1 µM [activator, single point]"
3,CC(=O)O[C@H]1C(=O)[C@]2(C)[C@H]([C@H](OC(=O)c3ccccc3)[C@]3(O)C[C@H](OC(=O)[C@H](O)[C@@H](NC(=O)c4ccccc4)c4ccccc4)C(C)=C1C3(C)C)[C@]1(OC(C)=O)CO[C@@H]1C[C@@H]2O,"inconclusive: 18.4 µM [falling, partial curve]"
4,CC(C)(C)NC(=O)CN(C(=O)Cn1nnc(-c2ccccc2F)n1)c1cccc2c1CCCC2,"inconclusive: 20.6 µM [falling, partial curve, poor fit]"
5,O=C(COC(=O)c1cncc(Br)c1)NC1CCCCCC1,inactive
6,Cn1c(SCC(=O)N2CCOCC2)nc2sc3c(c2c1=O)CCCC3,"inconclusive: 3.26 µM [falling, single point]"
7,COc1ccc(OC)c(NC(=O)c2nc(SCc3ccccc3F)ncc2Cl)c1,inactive
8,COc1cccc(CNC(=O)CCC2CCCN(C(=O)c3cc4ccccc4o3)C2)c1 (stereo not drawn),"inconclusive: 29.1 µM [falling, single point]"
9,CCc1cccc(-n2c(=O)c3cccnc3n2CC(=O)Nc2ccccc2C(=O)OC)c1,"inconclusive: 13 µM [activator, partial curve, poor fit]"
10,CCN1CCN(c2ncnc3c2sc(=S)n3-c2ccccc2)CC1,"inconclusive: 29.1 µM [activator, single point]"
11,CC1=C(Nc2ccc(C(=O)O)cc2)C(=O)c2ccccc2C1=O,"inconclusive: 18.4 µM [falling, single point]"
12,O=C(NCc1ccco1)c1ccc2c(c1)C(=O)N(Cc1ccccc1)C2=O,inactive
13,O=C(Cn1nc(C(F)(F)F)c2c1CCC2)N1CCN(c2ccccc2)CC1,inactive
14,COc1cc(NC(=O)CSc2ccc(-c3sc(-c4ccccc4)nc3C)nn2)cc(OC)c1,inactive
15,Oc1c(Br)cc(C=Nc2ccc3nc(-c4ccccc4)[nH]c3c2)c(O)c1Br,"inconclusive: 25.9 µM [falling, partial curve, poor fit]"
16,CCS(=O)(=O)Nc1ccc(-c2cc(-c3ccccc3)c3cc(C)ccc3n2)cc1,"inconclusive: 29.1 µM [falling, single point]"
17,Cn1nc(C(=O)Nc2ccc(-n3cnnn3)cc2)c2ccccc2c1=O,inactive
18,CCC(=O)N1c2ccccc2CC1C(=O)NCCc1ccc(OC)cc1OC (stereo not drawn),inactive
19,COc1ccc(CN2CCN(S(=O)(=O)c3ccccc3)CC2)c(OC)c1,inactive
20,CCn1cc(S(=O)(=O)c2ccc(C)cc2C)c(=O)c2cc(F)c(N3CCCC3)cc21,"inconclusive: 32.6 µM [falling, partial curve, poor fit]"
21,CC(C)Oc1ccc(CNC(=O)C2CCCN(S(=O)(=O)c3ccc4c(ccn4C)c3)C2)cc1 (stereo not drawn),inactive
